This is an account of results in patent publication US5516897A, “Monoazo reactive dyes and solutions thereof” (Zeneca Limited, priority 1992, dated 1996).

Data set [1] can be described thus: printing on cotton and viscose: shade, wash-off and cross-staining of the print. To be noted: printed on cotton and viscose.
Data set [2] is described as follows: printing on cotton: shade, wash-off and cross-staining of the print. As to conditions: printed on cotton. An excerpt: The title product was obtained in a yield of 60% (34 g) and found to have a lambda max at 414 nm.
The nature of data set [3]: standard SCWOT test of print on cotton.

For the compound `CCN(c1nc(Cl)nc(Nc2ccc(N=Nc3cc4c(S(=O)(=O)O)cc(S(=O)(=O)O)cc4cc3S(=O)(=O)O)c(NC(N)=O)c2)n1)c1cc(S(=O)(=O)O)ccc1C` [Example 1], in data set [1] (alginate print paste), the “cross-staining of adjacent fibres” value is listed as “little” and the wash-off properties entry is recorded as “excellent”. For the same compound, the shade of print entry in data set [1] is listed as “attractive golden-yellow shade”.

As for `CCN(c1nc(Nc2ccc(N=Nc3cc4c(S(=O)(=O)O)cc(S(=O)(=O)[O-])cc4cc3S(=O)(=O)O)c(NC(N)=O)c2)nc(-[n+]2ccc(C(=O)O)cc2)n1)c1cc(S(=O)(=O)O)ccc1C` [Example 2], in data set [1], the shade of print entry is recorded as “attractive golden-yellow shade”.

As for `CC(C)N(c1cccc(S(=O)(=O)O)c1)c1nc(Cl)nc(Nc2ccc(N=Nc3cc4c(S(=O)(=O)O)cc(S(=O)(=O)O)cc4cc3S(=O)(=O)O)c(NC(N)=O)c2)n1` [Example 3], in data set [2], the “cross-staining of adjacent fibres” value is listed as “little” and the wash-off entry was “good”.

Take `CC(C)N(c1ccc(S(=O)(=O)O)cc1)c1nc(Cl)nc(Nc2ccc(N=Nc3cc4c(S(=O)(=O)O)cc(S(=O)(=O)O)cc4cc3S(=O)(=O)O)c(NC(N)=O)c2)n1` [Example 4]: the wash-off entry in data set [2] is reported as “good”.

Take `CCN(c1nc(Cl)nc(Nc2cc(NC(C)=O)c(N=Nc3cc(S(=O)(=O)O)c4cccc(S(=O)(=O)O)c4c3)cc2OC)n1)c1cc(S(=O)(=O)O)ccc1C` [Example 5]: in data set [3], the cross-staining entry is “little” and the wash-off properties result is given as “excellent”. Besides, the shade of print result in data set [2] is “attractive golden-yellow shade”.
